# ± gives the standard deviation of the averaged measurements. Some of the results follow. Only hits are listed; about a third recur on repeated control peptides.
# Chains of the proteins cited; added tags and fusions are not shown.
# SRSF9, Q13242, UniProt Q13242, whole entry: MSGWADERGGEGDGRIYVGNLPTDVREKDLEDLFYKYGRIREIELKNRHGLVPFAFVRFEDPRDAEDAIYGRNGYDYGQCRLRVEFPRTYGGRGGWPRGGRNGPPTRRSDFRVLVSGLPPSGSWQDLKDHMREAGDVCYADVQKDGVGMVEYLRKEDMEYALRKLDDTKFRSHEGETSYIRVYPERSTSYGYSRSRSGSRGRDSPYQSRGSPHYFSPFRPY
# FAM168B, A1KXE4, UniProt A1KXE4, whole entry: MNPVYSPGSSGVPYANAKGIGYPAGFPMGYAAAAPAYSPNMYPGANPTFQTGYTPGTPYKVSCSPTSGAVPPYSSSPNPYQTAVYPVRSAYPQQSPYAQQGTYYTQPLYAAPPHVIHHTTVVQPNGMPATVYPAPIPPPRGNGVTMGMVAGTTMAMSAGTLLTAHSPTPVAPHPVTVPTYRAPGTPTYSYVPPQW
# PCBP2, Q15366, UniProt Q15366, whole entry: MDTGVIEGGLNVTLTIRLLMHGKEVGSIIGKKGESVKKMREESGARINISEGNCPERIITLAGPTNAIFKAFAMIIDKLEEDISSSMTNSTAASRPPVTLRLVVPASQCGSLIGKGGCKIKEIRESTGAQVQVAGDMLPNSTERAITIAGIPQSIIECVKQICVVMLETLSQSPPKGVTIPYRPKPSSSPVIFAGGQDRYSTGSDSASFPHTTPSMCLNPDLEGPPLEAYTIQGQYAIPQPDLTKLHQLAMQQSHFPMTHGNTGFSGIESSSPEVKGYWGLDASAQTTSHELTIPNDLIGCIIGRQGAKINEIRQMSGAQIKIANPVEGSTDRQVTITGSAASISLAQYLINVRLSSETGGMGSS
# YBX3, P16989, UniProt P16989, whole entry: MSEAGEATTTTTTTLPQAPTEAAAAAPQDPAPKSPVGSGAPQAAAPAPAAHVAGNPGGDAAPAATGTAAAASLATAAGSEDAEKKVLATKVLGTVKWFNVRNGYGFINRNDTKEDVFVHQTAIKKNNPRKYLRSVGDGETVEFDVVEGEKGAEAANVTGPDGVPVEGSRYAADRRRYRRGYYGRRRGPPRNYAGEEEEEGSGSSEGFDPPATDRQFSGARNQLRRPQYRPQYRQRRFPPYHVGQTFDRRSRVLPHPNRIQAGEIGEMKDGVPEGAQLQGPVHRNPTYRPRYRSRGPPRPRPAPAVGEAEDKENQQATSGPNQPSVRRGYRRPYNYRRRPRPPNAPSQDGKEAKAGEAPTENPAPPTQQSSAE
# GLYATL1B, A0A0U1RQE8, UniProt A0A0U1RQE8, whole entry: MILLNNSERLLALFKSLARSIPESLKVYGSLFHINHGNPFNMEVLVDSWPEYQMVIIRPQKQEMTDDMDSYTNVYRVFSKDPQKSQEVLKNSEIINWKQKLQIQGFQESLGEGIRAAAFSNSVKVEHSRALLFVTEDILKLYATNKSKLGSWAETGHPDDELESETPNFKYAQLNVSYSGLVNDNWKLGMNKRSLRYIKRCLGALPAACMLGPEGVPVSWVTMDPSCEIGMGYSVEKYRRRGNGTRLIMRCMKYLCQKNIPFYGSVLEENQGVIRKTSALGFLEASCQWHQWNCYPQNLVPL
# B1: PDZRN3-AS1 (peptide)
# chain: VLCVHSVIFPLRKLR
# B2: MRPL33 (peptide)
# chain: NILVRMVSEAGTGFC
# B3: ABR (peptide)
# chain: LLGLMGTGPAWWVVS
# B4: MRPL33 (peptide)
# chain: CFNTKRNRLREKLTL
# B5: PARL (peptide)
# chain: ARRGVRRWAAAAARS
# B6: BANCR (peptide)
# chain: MDSTVILSCVRSKN
# B7: NDUFB3 (peptide)
# chain: WKIEGTPLETIQKKL
# B8: NDUFB3 (peptide)
# chain: FAKSVSFSDVFFKGF
# B9: RP11-432J24.5 (peptide)
# chain: MKKKKYSHWKRGKVI
# B10: TRDN-AS1_2 (peptide)
# chain: LYKERYSSVKEAWMK
# B11: TUG1 (peptide)
# chain: FLLVRRTRAAAYAFA
# Columns and labels:
# Assay in all cases: PRISMA enrichment of interactor (LFQ) in peptide spot vs all other peptide spots (log2 fold change); higher = stronger / more specific binding of the interactor to the peptide
# [1] = biological target: ELP1, O95163
# Description: (§1)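 PRISMA: 15-aa overlapping tiles (offset 8 aa) of 60 microproteins, plus SOS1/GLUT1 control peptides, were spot-synthesized on cellulose membranes in triplicate. Membranes were incubated with benzonase-treated HEK293T lysate, and bound proteins were identified by LC-MS/MS with LFQ. Enrichment is the log2 fold change of each protein in one spot versus all other spots. Only interactors passing the significance cutoff are listed.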
# [2] = biological target: IPO4, Q8TEX9
# Description: as §1
# [3] = biological target: MLEC, Q14165
# Description: as §1
# [4] = biological target: MMS19, Q96T76
# Description: as §1
# [5] = biological target: MRPL44, Q9H9J2
# Description: as §1
# [6] = biological target: TMX1, Q9H3N1
# Description: as §1
# [7] = biological target: UBR5, O95071
# Description: as §1
# [8] = biological target: YTHDC1, Q96MU7
# Description: as §1
# [9] = biological target: ERH, P84090
# Description: as §1
# [10] = biological target: PPP6R3, Q5H9R7
# Description: as §1
# [11] = biological target: SRSF9, Q13242
# Description: as §1
# [12] = biological target: TRMT112, Q9UI30
# Description: as §1
# [13] = biological target: VIRMA, Q69YN4
# Description: as §1
# [14] = biological target: FAM168B, A1KXE4
# Description: as §1
# [15] = biological target: GNB1, P62873
# Description: as §1
# [16] = biological target: MRPL39, Q9NYK5
# Description: as §1
# [17] = biological target: MRPS5, P82675
# Description: as §1
# [18] = biological target: NACA
# Description: as §1
# [19] = biological target: PCBP2, Q15366
# Description: as §1
# [20] = biological target: PEBP1, P30086
# Description: as §1
# [21] = biological target: PRPF4, O43172
# Description: as §1
# [22] = biological target: PYCR2, Q96C36
# Description: as §1
# [23] = biological target: RPUSD4, Q96CM3
# Description: as §1
# [24] = biological target: SLU7, O95391
# Description: as §1
# [25] = biological target: SNRNP27, Q8WVK2
# Description: as §1
# [26] = biological target: TOR1AIP1, Q5JTV8
# Description: as §1
# [27] = biological target: FAM91A1, Q658Y4
# Description: as §1
# [28] = biological target: GNPDA1, P46926
# Description: as §1
# [29] = biological target: HDAC2, Q92769
# Description: as §1
# [30] = biological target: FAR1, Q8WVX9
# Description: as §1
# [31] = biological target: RBM6, P78332
# Description: as §1
# [32] = biological target: RFC3, P40938
# Description: as §1
# [33] = biological target: RTRAF, Q9Y224
# Description: as §1
# [34] = biological target: SPCS2, Q15005
# Description: as §1
# [35] = biological target: TBRG4, Q969Z0
# Description: as §1
# [36] = biological target: FGFR1, P11362
# Description: as §1
# [37] = biological target: MRPL11, Q9Y3B7
# Description: as §1
# [38] = biological target: NOL7, Q9UMY1
# Description: as §1
# [39] = biological target: NOP14, P78316
# Description: as §1
# [40] = biological target: TUBB2B, Q9BVA1
# Description: as §1
# [41] = biological target: ZGRF1, Q86YA3
# Description: as §1
# [42] = biological target: FYTTD1, Q96QD9
# Description: as §1
# [43] = biological target: INTS12, Q96CB8
# Description: as §1
# [44] = biological target: NMNAT1, Q9HAN9
# Description: as §1
# [45] = biological target: OXSR1, O95747
# Description: as §1
# [46] = biological target: PDXDC1, Q6P996
# Description: as §1
# [47] = biological target: PPP6R1, Q9UPN7
# Description: as §1
# [48] = biological target: RSL1D1, O76021
# Description: as §1
# [49] = biological target: TPM3, P06753
# Description: as §1
# [50] = biological target: TPR, P12270
# Description: as §1
# [51] = biological target: UBTF, P17480
# Description: as §1
# [52] = biological target: YBX3, P16989
# Description: as §1
# [53] = biological target: ZNF622, Q969S3
# Description: as §1
# [54] = biological target: GEMIN2, O14893
# Description: as §1
# [55] = biological target: NUTF2, P61970
# Description: as §1
# [56] = biological target: OSTC, Q9NRP0
# Description: as §1
# [57] = biological target: PUS1, Q9Y606
# Description: as §1
# [58] = biological target: RER1, O15258
# Description: as §1
# [59] = biological target: GLRX3, O76003
# Description: as §1
# [60] = biological target: HMGB1, P09429
# Description: as §1
# [61] = biological target: NAP1L1, P55209
# Description: as §1
# [62] = biological target: NUCKS1, Q9H1E3
# Description: as §1
# [63] = biological target: PTGES3, Q15185
# Description: as §1
# [64] = biological target: PTMA, P06454
# Description: as §1
# [65] = biological target: PTMS, P20962
# Description: as §1
# [66] = biological target: RPLP1, P05386
# Description: as §1
# [67] = biological target: RPS29, P62273
# Description: as §1
# [68] = biological target: SGPP1, Q9BX95
# Description: as §1
# [69] = biological target: YWHAH, Q04917
# Description: as §1
# [70] = biological target: GLYATL1B, A0A0U1RQE8
# Description: as §1
# [71] = biological target: HMGA2, P52926
# Description: as §1
# [72] = biological target: TACO1, Q9BSH4
# Description: as §1
# [73] = biological target: GPC1, P35052
# Description: as §1
# [74] = biological target: INTS2, Q9H0H0
# Description: as §1
# [75] = biological target: ISYNA1, Q9NPH2
# Description: as §1
# [76] = biological target: MTCH2, Q9Y6C9
# Description: as §1
binder,measurement,setting,value
B1,PRISMA enrichment of interactor (log2),[1],8.89
same,PRISMA enrichment of interactor (log2),[2],6.42
same,PRISMA enrichment of interactor (log2),[3],6.55
same,PRISMA enrichment of interactor (log2),[4],5.15
same,PRISMA enrichment of interactor (log2),[5],4.92
same,PRISMA enrichment of interactor (log2),[6],7.15
same,PRISMA enrichment of interactor (log2),[7],6.97
same,PRISMA enrichment of interactor (log2),[8],6
B2,PRISMA enrichment of interactor (log2),[9],6.14
same,PRISMA enrichment of interactor (log2),[10],4.37
same,PRISMA enrichment of interactor (log2),[11],5.41
same,PRISMA enrichment of interactor (log2),[12],6.11
same,PRISMA enrichment of interactor (log2),[13],5.06
B3,PRISMA enrichment of interactor (log2),[14],4.23
same,PRISMA enrichment of interactor (log2),[15],7.36
same,PRISMA enrichment of interactor (log2),[16],4.64
same,PRISMA enrichment of interactor (log2),[17],5.64
same,PRISMA enrichment of interactor (log2),[18],5
same,PRISMA enrichment of interactor (log2),[19],6.99
same,PRISMA enrichment of interactor (log2),[20],5.09
same,PRISMA enrichment of interactor (log2),[21],4.34
same,PRISMA enrichment of interactor (log2),[22],9.46
same,PRISMA enrichment of interactor (log2),[23],4.59
same,PRISMA enrichment of interactor (log2),[24],5.35
same,PRISMA enrichment of interactor (log2),[25],4.2
same,PRISMA enrichment of interactor (log2),[26],7.41
B4,PRISMA enrichment of interactor (log2),[27],4.91
same,PRISMA enrichment of interactor (log2),[28],5.17
same,PRISMA enrichment of interactor (log2),[29],3.75
B5,PRISMA enrichment of interactor (log2),[30],5.38
same,PRISMA enrichment of interactor (log2),[31],4.94
same,PRISMA enrichment of interactor (log2),[32],6.24
same,PRISMA enrichment of interactor (log2),[33],6.55
same,PRISMA enrichment of interactor (log2),[34],5.54
same,PRISMA enrichment of interactor (log2),[35],4.3
B6,PRISMA enrichment of interactor (log2),[36],8.27
same,PRISMA enrichment of interactor (log2),[37],4.19
same,PRISMA enrichment of interactor (log2),[38],4.08
same,PRISMA enrichment of interactor (log2),[39],4.99
same,PRISMA enrichment of interactor (log2),[40],6.26
same,PRISMA enrichment of interactor (log2),[41],4.1
B7,PRISMA enrichment of interactor (log2),[42],7.58
same,PRISMA enrichment of interactor (log2),[43],5.74
same,PRISMA enrichment of interactor (log2),[44],4.77
same,PRISMA enrichment of interactor (log2),[45],4
same,PRISMA enrichment of interactor (log2),[46],3.99
same,PRISMA enrichment of interactor (log2),[47],3.85
same,PRISMA enrichment of interactor (log2),[48],6.39
same,PRISMA enrichment of interactor (log2),[49],5.39
same,PRISMA enrichment of interactor (log2),[50],5.22
same,PRISMA enrichment of interactor (log2),[51],7.5
same,PRISMA enrichment of interactor (log2),[52],4.54
same,PRISMA enrichment of interactor (log2),[53],4.47
B8,PRISMA enrichment of interactor (log2),[54],5.36
same,PRISMA enrichment of interactor (log2),[55],4.83
same,PRISMA enrichment of interactor (log2),[56],4.81
same,PRISMA enrichment of interactor (log2),[57],4.56
same,PRISMA enrichment of interactor (log2),[58],5.03
B9,PRISMA enrichment of interactor (log2),[59],4.17
same,PRISMA enrichment of interactor (log2),[60],6.34
same,PRISMA enrichment of interactor (log2),[61],5.83 ± 0.28
same,PRISMA enrichment of interactor (log2),[62],4.39
same,PRISMA enrichment of interactor (log2),[63],5.43
same,PRISMA enrichment of interactor (log2),[64],5.55
same,PRISMA enrichment of interactor (log2),[65],4.84
same,PRISMA enrichment of interactor (log2),[66],6.07
same,PRISMA enrichment of interactor (log2),[67],4.45
same,PRISMA enrichment of interactor (log2),[68],5.58
same,PRISMA enrichment of interactor (log2),[69],4.44
B10,PRISMA enrichment of interactor (log2),[70],4.79
same,PRISMA enrichment of interactor (log2),[71],5.13
same,PRISMA enrichment of interactor (log2),[72],4.23
B11,PRISMA enrichment of interactor (log2),[73],4.26
same,PRISMA enrichment of interactor (log2),[74],4.76
same,PRISMA enrichment of interactor (log2),[75],4.53
same,PRISMA enrichment of interactor (log2),[76],6.75
same,PRISMA enrichment of interactor (log2),[12],6.88

# Some of the entries so far, with bars between the fields.
binder | measurement | setting | value
B1 | PRISMA enrichment of interactor (log2) | [5] | 4.92
B2 | PRISMA enrichment of interactor (log2) | [13] | 5.06
B3 | PRISMA enrichment of interactor (log2) | [19] | 6.99
B6 | PRISMA enrichment of interactor (log2) | [36] | 8.27
same | PRISMA enrichment of interactor (log2) | [37] | 4.19
B7 | PRISMA enrichment of interactor (log2) | [51] | 7.5
